{"source": "PubChem BioAssay AID1347423", "about": "(Functional Genomics Laboratory (NCATS/FGL), 2020)", "note": "Screen size: about 52,000 sequences; about 210 (0.4%) were called active.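 Rule for the calls: active = gene whose silencing raises cell survival under the drug, median off-target-corrected z-score across its silencing RNAs 2 or more; inactive = the rest.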 Some of the results follow.", "data": [{"assay": "Resistance to Poly (ADP-Ribose) Polymerase inhibitor: Gene Identification via Genome-wide siRNA Screen", "settings": "mouse BRCA2 R2336H ES cells, olaparib, CellTiter-Glo viability; active compounds read high", "outline": "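Genome-wide siRNA screen (3 siRNAs/gene, 20 nM) in mouse ES cells carrying hypomorphic BRCA2 R2336H; olaparib 500 nM added 48 h post-transfection, CellTiter-Glo viability 72 h later. Normalized to plate-median negative control; MAD z-scores, gene median, seed-adjusted.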", "values": [{"sequence": "GGAGGUGUGGGUACCUUCUTT against 4732481H14Rik", "z-score": "inactive: -0.916"}, {"sequence": "CGCCAGAGUGCAUAGUCUUTT against B230380D07Rik", "z-score": "inactive: -0.832"}, {"sequence": "GGUAUUCAGUAUUUUGACUTT against Olfr196", "z-score": "inactive: 0.94"}, {"sequence": "CCGUAUUUGGACUGAGCAATT against Chic2", "z-score": "inactive: 1.75"}, {"sequence": "GGCUGCUGACAUUUUCAUCTT against Lrrc28", "z-score": "inactive: 0.0806"}, {"sequence": "GGAUGUCAGAGAUAUAUUUTT against Fbxo18", "z-score": "inactive: 0.931"}, {"sequence": "CCAGGAGUCGAGUGAUGGUTT against Rtl1", "z-score": "inactive: -0.961"}, {"sequence": "GGGAAAUUGUUCGUGACAUTT against Actg", "z-score": "inactive: 0.431"}, {"sequence": "GCCACCAAACGAUGGUAUCTT against D5Ertd40e", "z-score": "inactive: -1.94"}, {"sequence": "UGCUGGUGUCGUUAUGAAGTT against Pla2g12a", "z-score": "inactive: -1.29"}, {"sequence": "CCUUAUGGCCUACGACUUCTT against Chit1", "z-score": "inactive: -0.482"}, {"sequence": "CGUUGCUGAGAACGAGUCGTT against Pomc1", "z-score": "inactive: -0.338"}, {"sequence": "CCAGUCGUGAACUUGAAAGTT against 2410016F19Rik", "z-score": "inactive: 0.448"}, {"sequence": "GGCCAGUUUAUGGGAUUUUTT against 2610039C10Rik", "z-score": "inactive: -1.46"}, {"sequence": "GGUUCAAAUGUUCUCCAUATT against 9530080O11Rik", "z-score": "inactive: 1.23"}, {"sequence": "GGUGGAGCUGCUAUCACAUTT against AI848100", "z-score": "inactive: -0.215"}, {"sequence": "GGCCAAUAUAGGUUAUAGATT against Anapc11", "z-score": "inactive: 1.79"}, {"sequence": "GGUCUCAAGGACAAAAAAGTT against Sult3a1", "z-score": "inactive: 1.19"}, {"sequence": "GCAUCAUGGUCACAAAUGGTT against Ncr1", "z-score": "inactive: -0.546"}, {"sequence": "GGUGAAUUUCCUUCUACAUTT against Tas1r1", "z-score": "inactive: 0.18"}, {"sequence": "GGAGCUAAUGGAAAACGGCTT against Lcn7", "z-score": "inactive: 0.234"}, {"sequence": "CCUUACCCUGUGUAUCUUUTT against Nat6", "z-score": "inactive: -1.31"}, {"sequence": "CCCUUGCUUGCUAAGAUUUTT against 1200016D23Rik", "z-score": "inactive: -0.709"}, {"sequence": "GCACCGAGUGGAAUAAUCATT against C820005L12Rik", "z-score": "inactive: 0.498"}, {"sequence": "GGACAAUGGAGCUCAAGUCTT against 2310042G06Rik", "z-score": "inactive: 0.406"}, {"sequence": "GGUGAUGCAAGUGGUUCGGTT against Elmo3", "z-score": "inactive: -0.641"}, {"sequence": "GGAGUGAACCUUUGAAAGUTT against Rbak", "z-score": "inactive: 0.696"}, {"sequence": "GGUUGGACACGAAAGCUUATT against Mecp2", "z-score": "inactive: -3.23"}, {"sequence": "GGACAGCCAUCUUGAUUUATT against Gstt2", "z-score": "inactive: -0.269"}, {"sequence": "GCUACAAUCUAGAACAAGATT against Olfr361", "z-score": "inactive: 0.116"}, {"sequence": "GGCGAAGGGCAAGAAUAAATT against Hes1", "z-score": "inactive: 0.252"}, {"sequence": "GGAGAACCCAUUAAAGAAATT against Amd1", "z-score": "inactive: -0.0366"}, {"sequence": "CCUAGUGAUUAAAGGGAUGTT against Tessp3", "z-score": "inactive: -1.92"}, {"sequence": "GGUCUUGGUAUCAUAUAUGTT against D0H4S114", "z-score": "inactive: 0.754"}, {"sequence": "GGAUCCUUCUCUGAAGCAGTT against Olfr657", "z-score": "inactive: -2.03"}, {"sequence": "GGACUAUGGCAAAGAAUCUTT against Rps12", "z-score": "inactive: -3.24"}, {"sequence": "GGUUUGUGAAUCUUAUCUCTT against 5830482G23Rik", "z-score": "inactive: -0.654"}, {"sequence": "CGCGAAGGGAAGGGUUGUATT against Pfn4", "z-score": "inactive: -1.45"}, {"sequence": "CCAUUCAAUGGUAACUGAATT against Olfr973", "z-score": "inactive: -1.95"}, {"sequence": "GGUCGACUUAAGAUAAUAATT against Itgb6", "z-score": "active: 1.94"}, {"sequence": "GGUGGUUCUCAGCUGUGUATT against Arhgef18", "z-score": "inactive: -2.26"}, {"sequence": "CGGUGUCACCCAUGUUAUCTT against Arp3b", "z-score": "inactive: -0.351"}, {"sequence": "GCACUUCGAAGAAAUAAAATT against 1110064P04Rik", "z-score": "inactive: 0.941"}, {"sequence": "CCAUUUUGCCUGUGAUAUGTT against Olfr1254", "z-score": "inactive: 1.02"}, {"sequence": "CCAAGUGGAUCGAAGCCCATT against Pp11r", "z-score": "inactive: 0.899"}, {"sequence": "GGGCUUAUUGGAAGUCAGATT against BC017545", "z-score": "inactive: -0.858"}, {"sequence": "CGAAAUCCAUAGAUUUACUTT against 4930563E19Rik", "z-score": "inactive: 0.443"}, {"sequence": "GGAUGGAAGCGUAAAUUUCTT against Angpt4", "z-score": "inactive: 0.186"}, {"sequence": "GCUACAGGUAGACAUUCCATT against Ubn1", "z-score": "inactive: -1.43"}, {"sequence": "GGACAAGUACCAAGUCAAUTT against Hrasls3", "z-score": "inactive: 1.07"}, {"sequence": "GGCCAAACCAUCAUGCAAGTT against Nfya", "z-score": "inactive: -1.31"}, {"sequence": "GGUCAAACUUAGCGACAAUTT against Zdhhc8", "z-score": "inactive: 0.252"}, {"sequence": "GGCAACAUAAUAAUUGCAGTT against Olfr1212", "z-score": "inactive: -0.599"}, {"sequence": "GCCCUGGAGUCCUAAUAAATT against Pmvk", "z-score": "inactive: -0.657"}, {"sequence": "GCAGCAAUACAUCCUUCAUTT against Cdh1", "z-score": "inactive: -0.549"}, {"sequence": "CGUUUAUUGUAACCAGAAUTT against BC043098", "z-score": "inactive: -1.21"}, {"sequence": "GGAAACUGGCUUAGCAAUGTT against Trappc4", "z-score": "inactive: 0.383"}, {"sequence": "GGUGAGGUUCAAACAUUCUTT against Sdf2", "z-score": "inactive: 0.584"}, {"sequence": "CCUUCUACUAAUCAAGAGATT against Sparc", "z-score": "inactive: -0.487"}, {"sequence": "CCCUGCUGUCGUUUUGACUTT against Senp3", "z-score": "inactive: -1.14"}, {"sequence": "GCAAAUUCUGACUUACUAATT against 4932411E22Rik", "z-score": "inactive: -1.77"}, {"sequence": "GGUUAGUGCUCCAUUAUUCTT against 2810009O15Rik", "z-score": "inactive: 0.772"}, {"sequence": "GGCCUUCAAGGUGUUUGAGTT against Flcn", "z-score": "inactive: -0.739"}, {"sequence": "CGAUAAAAGAGAGAUGAUUTT against Rap1gds1", "z-score": "inactive: 0.406"}, {"sequence": "GGCAUGCAACUAUAUAGUUTT against Slfn4", "z-score": "inactive: 0.808"}, {"sequence": "GGCUCUCCAACUGUAUGAATT against MGC78289", "z-score": "inactive: 0.807"}]}]}
